# Reference: US20120315283A1, “METHODS OF PROMOTING TISSUE GROWTH AND TISSUE REGENERATION” (DANA-FARBER CANCER INSTITUTE, INC., priority 2010, published 2012)
# Some entries share one result that the patent states for a list of compounds.
# System: endothelial cells
# Assay: Endothelial cell migration
# Assay type: cell-based
smiles,measurement,value
"CS(=O)(=O)N1CCC(NC(=O)Nc2ccc(OC(F)(F)F)cc2)CC1 [TUPS, 1-(1-methanesulfonyl-piperidin-4-yl)-3-(4-trifluoromethoxy-phenyl)-urea]",stimulation of VEGF-mediated endothelial migration,2- to 3 fold
